# Measured values taken from PubChem BioAssay AID2685 (National Center for Advancing Translational Sciences (NCATS), 2010).
# Some of the results follow. Further columns of the screen follow, without active or inactive calls. Compounds called inactive in the main read-out are mostly missing here. The note in brackets gives the kind of curve behind each potency; many fits are weak.
# Test: qHTS Assay for Lipid Storage Modulators in Drosophila S3 Cells;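 on cell number change: cells counted by Cell Tracker Red CMTPX staining in the red channel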
# Details: BODIPY lipid droplet fluorescence, 18-24 h; for cell number change: measured here: cell count max response, cells fed with added oleic acid
# In short: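 Laser-scanning cytometry quantifies lipid droplet accumulation (500–530 nm total intensity; droplet/cell object ratio) in oleic acid-fed (400 uM added) Drosophila S3 cells treated with a concentration series. 20 uM Triacsin C defined 100% inhibition.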
# [1] = measured here: lipid fluorescence (Fed channel) AC50, cells fed with added oleic acid
# [2] = measured here: cell number channel AC50, cells fed with added oleic acid
smiles,measurement,setting,value
COc1cc2c(cc1OC)C(C(=O)Nc1ccccn1)C(c1cccnc1)N(C)C2=O (stereo not drawn),cell number change,,-16.7%
same,AC50,[1],"6.51 µM [falling, single point]"
CCOC(=O)c1cc(CC)sc1NC(=O)COC,cell number change,,-19.5%
O=C(NCCc1ccc(F)cc1)Nc1ccc([N+](=O)[O-])cc1,AC50,[1],"20.6 µM [falling, partial curve]"
CCOC(=O)C1CCN(S(=O)(=O)c2ccc3c4c(cccc24)C(=O)N3)CC1,cell number change,,9.92%
same,AC50,[2],"1.3 µM [falling, partial curve]"
COCCN(Cc1ccc(F)cc1)C(=O)c1cc2ccccc2oc1=O,cell number change,,3.86%
same,AC50,[1],"6.51 µM [rising, single point]"
Cc1oc(-c2ccc(Cl)cc2)nc1CS(=O)CC(=O)NCc1ccccn1 (stereo not drawn),cell number change,,6.6%
same,AC50,[1],"14.6 µM [rising, partial curve]"
CC(C)C[C@@]12C(=O)N(c3cccc(F)c3)C(=O)N1[C@H](c1ccc(F)cc1)[C@@H]1C(=O)N(C3CCCCC3)C(=O)[C@@H]12,cell number change,,-21.7%
same,AC50,[1],"29.1 µM [rising, single point]"
Cc1nc(NC(=O)CSc2nnc(-c3ccccc3)c(-c3ccccc3)n2)c(Cl)cc1Cl,cell number change,,-37.7%
same,AC50,[2],"14.6 µM [falling, partial curve, poor fit]"
same,AC50,[1],"13 µM [falling, partial curve]"
CC(=O)N1c2ccc(S(=O)(=O)NCC3CCC(C(=O)NC4CCCCC4C)CC3)cc2CC1C (stereo not drawn),cell number change,,0.382%
same,AC50,[1],"0.461 µM [falling, single point]"
COc1ccc(Cl)cc1-c1n[nH]c(=S)n1C1CCCCC1,cell number change,,10.1%
same,AC50,[1],"0.517 µM [rising, single point]"
CCOC(=O)Cc1csc(NC(=O)CCc2ccc(S(=O)(=O)N3CCOCC3)cc2)n1,cell number change,,-20.7%
same,AC50,[1],"6.51 µM [rising, single point]"
CC(C)c1ccc(S(=O)(=O)NC2CCCC2)cc1,cell number change,,36.2%
same,AC50,[2],"3.66 µM [rising, full curve, poor fit]"
same,AC50,[1],"2.06 µM [rising, partial curve, poor fit]"
COc1ccc2c(c1)sc(N)[n+]2Cc1cc(C)cc2cccnc12,cell number change,,-26.7%
same,AC50,[1],"10.3 µM [falling, partial curve, poor fit]"
COc1ccc2c(=O)cc(C(=O)O)oc2c1,cell number change,,34.4%
same,AC50,[2],"25.9 µM [rising, single point]"
CCc1ccc(C(C)(O)C(CN2CCOCC2)c2ccccc2)cc1 (stereo not drawn),cell number change,,-0.59%
same,AC50,[1],"0.0058 µM [rising, full curve, poor fit]"
O=C1C(Nc2ccccc2)=C/C(=N/S(=O)(=O)c2cccs2)c2ccccc21,cell number change,,-76.9%
same,AC50,[2],"13 µM [falling, partial curve, poor fit]"
same,AC50,[1],"8.2 µM [falling, partial curve]"

# Part of the list above, as tab-separated lines:
smiles	measurement	setting	value
COCCN(Cc1ccc(F)cc1)C(=O)c1cc2ccccc2oc1=O	AC50	[1]	6.51 µM [rising, single point]
Cc1oc(-c2ccc(Cl)cc2)nc1CS(=O)CC(=O)NCc1ccccn1 (stereo not drawn)	cell number change		6.6%
